# In US20210269549A1, “ANTI-SAS1B ANTIBODIES, ASSOCIATED METHODS OF USE, AND COMPOSITIONS AND METHODS FOR DETECTING AND TREATING CANCER” (UNIVERSITY OF VIRGINIA PATENT FOUNDATION, priority 2015, published 2021):
# Numbering of substitutions follows the chain as printed. “And” between values parts separate entries of the source, which are not always exact repeats. Equal values may be shown once.
# B1: SB4: mouse anti-human SAS1B monoclonal antibody, IgG2a; VH SEQ ID NO:16, VL SEQ ID NO:17 (antibody, listed as Mus musculus, V domains shown)
# VH: EVQLQQSGPELVKPGSSVKISCKPSGYTFTDYNMVWMKQSHGKSLEWIGAINPNNGGTTYNQKFKGKATLTVDKSSSTAYMELRSLTSEDSAVYYCAPNWDWFAYWGQGTLVTVSA
# VL: DVLMTQTPLSLPVSLGDQASISCRSSQSILHSNGNTYLEWYLQKPGQSPKLLIYKVSNRFSGVPDRFSGSGSGTDFTLKISRVEAEDLGVYYCFQGSHVPFTFGSGTKLEIK
# B2: SB5: mouse anti-human SAS1B monoclonal antibody, IgG2b; VH SEQ ID NO:16, VL SEQ ID NO:18 (antibody, listed as Mus musculus, V domains shown)
# VH: B1 VH
# VL: B1 VL with T7I
# B3: SB2: mouse anti-human SAS1B monoclonal antibody, IgG2b; VH SEQ ID NO:14, VL SEQ ID NO:15 (antibody, listed as Mus musculus, V domains shown)
# VH: B1 VH with P24A, M37V, I51V, T59S, A97V
# VL: B1 VL with I29L, L30V, K50N
# Tested on: SAS1B
# Test: Western blot of uterine cancer cell line (SNU539) extract
# Assay type: binding, human
# Details: SNU539 RIPA extract, 42 ug total protein per lane, mAbs at 3 ug/ml
row,Molecule,Band identified on western blot
1,B1,~43 kD
2,B2,~43 kD
3,B3,~43 kD and ~52 kD and ~50 kD
